According to patent publication US20240016901A1, “COMPOSITIONS AND METHODS FOR PREVENTING AND TREATING SARS-COV-2 INFECTION” (priority 2020, published 2024):

Test system: Huh-7 cells
Test: Cell toxicity / cell viability in the Huh-7 imaging assay

CCCCc1oc2ccccc2c1C(=O)c1cc(I)c(OCCN(CC)CC)c(I)c1 [Amiodarone]
cell toxicity: limited cell toxicity
